Hit rate of the full screen: of about 1,200 compounds, fewer than 10 were called active. The call rests on the fitted dose curve; in most records, active means well fitted curve in the direction sought with a large enough effect; inconclusive means small, poorly fitted or top-dose-only effect, or another doubt; inactive means no such curve, though single readings can be large or run the other way. Some of the results follow.

Chains of the proteins cited; added tags and fusions are not shown. Lines headed by an entry give the natural chain unless they say otherwise; changes in a name come on top.
UniProt P11308: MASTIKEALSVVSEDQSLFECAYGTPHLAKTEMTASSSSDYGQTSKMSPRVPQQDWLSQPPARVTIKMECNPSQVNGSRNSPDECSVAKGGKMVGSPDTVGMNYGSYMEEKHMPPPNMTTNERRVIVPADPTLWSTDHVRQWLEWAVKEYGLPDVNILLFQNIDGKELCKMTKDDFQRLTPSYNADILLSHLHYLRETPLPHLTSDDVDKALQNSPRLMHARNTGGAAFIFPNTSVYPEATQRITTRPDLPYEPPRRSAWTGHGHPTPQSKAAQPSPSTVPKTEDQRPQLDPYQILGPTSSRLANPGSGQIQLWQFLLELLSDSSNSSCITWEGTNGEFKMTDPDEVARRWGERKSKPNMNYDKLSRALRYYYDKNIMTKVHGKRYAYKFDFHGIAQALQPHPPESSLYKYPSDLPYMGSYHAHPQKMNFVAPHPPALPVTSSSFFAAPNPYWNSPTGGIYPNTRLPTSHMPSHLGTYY

The assay deals with Transcriptional regulator ERG (Homo sapiens) (UniProt P11308). As to the kind of experiment: qHTS for Small Molecule Inhibitors of the ERG Ets/DNA interaction: TR assay against cherry picks. Further: % of control where 0% means no effect. The settings on record: ERG Ets domain-DNA fluorescence polarization, Texas red probe; at 154 µM (top of the series). In a few lines:
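Polarization read sequentially for fluorescein (ex 480/em 535 nm) and Texas red (ex 555/em 632 nm) probes, 5 nM and 100 nM solutions, displaced from His-ERG Ets domain (1 uM solution), pH 7.5 Tris/KCl/EDTA/DTT buffer.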
Background: In qHTS, concentration-response curves come from the screen itself.
`C=COc1ccc(N2C(=O)c3ccccc3OC2C)cc1` (stereo not drawn): the activity change, negative = inhibition is inactive: -11.8%.

Take `O=C(COc1ccccc1)Nc1ccc2c(c1)Cc1cc(NC(=O)COc3ccccc3)ccc1-2`: the activity change, negative = inhibition is inactive: 2%.

With `CCOc1cc(S(=O)(=O)n2ccc(C)n2)ccc1Br`, the activity change, negative = inhibition was inactive: 10.8%.

Consider `CC(Oc1ccccc1)C(=O)Nc1ccc(S(=O)(=O)N2CCN(C)CC2)cc1` (stereo not drawn), for which the activity change, negative = inhibition was inactive: -8.43%.

Consider `COc1ccc(NC(=S)Nc2ccc(N(C)C(C)=O)cc2)cc1`, for which the activity change, negative = inhibition is inactive: 9.81%.

`COc1ccc(C(=O)N2CCc3ccc(NC(=O)c4ccccn4)cc3C2)cc1F`: the activity change, negative = inhibition was inactive: -0.766%.

For the compound `COc1ccc(OC)c(/C=N/NC(=O)c2ccc[n+](CC(=O)c3ccccc3)c2)c1`, the activity change, negative = inhibition was inactive: 4.84%.

Turning to `COc1ccc(/C=N/n2cnnc2)cc1Br`, the activity change, negative = inhibition was inactive: -7.09%.

As to `Cc1nc2ccccc2c(=O)n1NC(=O)c1cccnc1Cl`, the activity change, negative = inhibition was inactive: -1.27%.

As for `O=C(CSc1ncccc1C(=O)O)NCCC1=CCCCC1`, the activity change, negative = inhibition is inactive: 0.0624%.

`Nc1ccccc1S(N)(=O)=O`: the activity change, negative = inhibition was inactive: -4.27%.

Turning to `COc1ccc(CCC(=O)N2CCN(S(=O)(=O)c3ccc(C)cc3)CC2)cc1`, the activity change, negative = inhibition is inactive: 2.3%.

Regarding `COc1ccc2c(CCNC(=O)/C=C/c3ccc(OC)c(OC)c3)c[nH]c2c1`, the activity change, negative = inhibition was inactive: 1.82%.

As for `COc1ccccc1NC(=O)C(=O)N/N=C(\C)CC(=O)Nc1ccccn1`, the activity change, negative = inhibition is inactive: 2.79%.

As for `Cc1cc(N)ccc1-n1c(C)ccc1C`, the activity change, negative = inhibition is inactive: -12.2%.

Take `CC(=O)c1ccc(N(CC(=O)NC2CCS(=O)(=O)C2)S(=O)(=O)c2ccc(C)cc2)cc1` (stereo not drawn): the activity change, negative = inhibition is inactive: 25.8%.

`Cc1ccc(C=Nc2cccnc2N)cc1`: the activity change, negative = inhibition was inactive: 44%.

Regarding `Cn1c(SCc2ccc([N+](=O)[O-])cc2)nnc1-c1cccnc1`, the activity change, negative = inhibition was inactive: 5.13%.

In the case of `O=C(Nc1nc(-c2ccc(F)c(F)c2)cs1)c1cc([N+](=O)[O-])ccc1N1CCOCC1`, the activity change, negative = inhibition was inactive: 1.32%.

Regarding `Cc1ccc(C)c(N(CC(=O)NCc2ccco2)C(=O)CNS(=O)(=O)c2ccc(F)cc2)c1`, the activity change, negative = inhibition is inactive: 2.79%.

As to `Clc1ccc(-c2csc(N/N=C/c3ccco3)n2)cc1`, the activity change, negative = inhibition is inactive: -19.8%.

For `COc1cc(OC)cc(C(=O)OCC(=O)N2CCCC2)c1`, the activity change, negative = inhibition was inactive: 0.0223%.

On to `COc1cc(-c2ccc(Nc3ccccc3C(=O)O)c(OC)c2)ccc1Nc1ccccc1C(=O)O`, for which the activity change, negative = inhibition is inactive: -17.9%.

For the compound `COc1ccc(OC)c(NC(=O)c2cccc(NC(=O)c3ccccc3)c2)c1`, the activity change, negative = inhibition is inactive: 4.7%.

With `CCCNC(=O)C1=C(C)C(=O)OC12CCC(C)CC2` (stereo not drawn), the activity change, negative = inhibition is inactive: 5.66%.

`CCn1c(CSc2ncn[nH]2)nc2cc(C(=O)O)ccc21`: the activity change, negative = inhibition was inactive: 28.3%.

`CCN(CC)CCCNC(=O)c1cc(Nc2ccc(OC)cc2OC)nc2ccccc12`: the activity change, negative = inhibition is inactive: -5.72%.

On to `CCn1ncc(Br)c1C(=O)Nc1cccc(C(C)=O)c1`, for which the activity change, negative = inhibition is inactive: 3.75%.

Take `CC(=O)Nc1sc2c(c1-c1nc3ccccc3s1)CCN(C(C)C)C2`: the activity change, negative = inhibition was inactive: -14.4%.

On to `Cc1ccc(C(=O)Nc2nnc(COc3ccccc3)s2)cc1`, for which the activity change, negative = inhibition was inactive: 9.85%.

Consider `COc1ncnc2c1N=C1CC(C)(C)CC(N)=C1S2`, for which the activity change, negative = inhibition was inactive: 82%.

For `CCCCn1c(N)c(N(CC)C(=O)c2ccc(C#N)cc2)c(=O)[nH]c1=O`, the activity change, negative = inhibition is inactive: -1.33%.

For the compound `COCCn1c(C)cc(C(=O)CSc2nnnn2C2CCCC2)c1C`, the activity change, negative = inhibition was inactive: 6.02%.

For the compound `O=C(NC1CCCC1)C1CCN(C(=O)c2cccc(Cl)c2)CC1`, the activity change, negative = inhibition is inactive: 5.11%.

As for `COc1ccccc1S(=O)(=O)Cc1ccc(C(=O)NCCN(C)C)o1`, the activity change, negative = inhibition is inactive: 0.0621%.

For the compound `CCOc1ccc(NC(=O)CN(C)C(=O)c2ccccc2CCc2ccccc2)cc1OCC`, the activity change, negative = inhibition is inactive: -0.492%.

In the case of `Cc1noc(C)c1C(=O)Nc1cccnc1`, the activity change, negative = inhibition is inactive: -5.56%.

For the compound `Cc1c(NS(=O)(=O)c2ccc(NCC3CCCO3)c([N+](=O)[O-])c2)c(=O)n(-c2ccccc2)n1C` (stereo not drawn), the activity change, negative = inhibition is inactive: 0.67%.

Turning to `Oc1ccccc1CN1CCCC(N2CCN(c3cccc(C(F)(F)F)c3)CC2)C1` (stereo not drawn), the activity change, negative = inhibition was inactive: -0.432%.

Turning to `CCC(c1nnnn1Cc1ccc(F)cc1)N1CCN(C)CC1` (stereo not drawn), the activity change, negative = inhibition was inactive: 0.167%.

For the compound `CC(=O)c1cccc(NC(=O)C(C)OC(=O)c2ccc3ncsc3c2)c1` (stereo not drawn), the activity change, negative = inhibition was inactive: -2.88%.

Consider `CCCNC(=O)CCC(=O)N1Cc2ccccc2Oc2ncccc21`, for which the activity change, negative = inhibition is inactive: -15.3%.

On to `COc1ccc(C(=O)n2nc(C)c(Br)c2C)cc1OC`, for which the activity change, negative = inhibition was inactive: 1.94%.

As for `CN(C)Cc1cc2ccccc2c2c1COC2`, the activity change, negative = inhibition is inactive: -13.2%.

Take `Cc1cc(C)c2nc(NC(=O)[C@@H](NC(=O)c3cccc(S(=O)(=O)N4CCOCC4)c3)C(C)C)sc2c1`: the activity change, negative = inhibition was inactive: -9.98%.

As for `CSc1ccc(S(=O)(=O)N2CCC(C(=O)NCc3ccncc3)CC2)cc1`, the activity change, negative = inhibition is inactive: -3.33%.

`CC(CN1CCOCC1)(NS(=O)(=O)c1ccccc1)c1ccccc1` (stereo not drawn): the activity change, negative = inhibition was inactive: -9.83%.

As to `Cc1cccc([N+](=O)[O-])c1C(=O)O`, the activity change, negative = inhibition is inactive: -2.94%.

In the case of `C[N+](C)(C)CCCCCC[N+](C)(C)C`, the activity change, negative = inhibition is inactive: -3.19%.

Turning to `COC(=O)Cn1c(=NC(=O)C2COc3ccccc3O2)sc2cc(S(N)(=O)=O)ccc21` (stereo not drawn), the activity change, negative = inhibition is inactive: 6.29%.

With `O=C(O)c1cc(O)c2c(c1)[C@H]([C@H]1c3cc(C(=O)O)cc(O)c3C(=O)c3c(O[C@@H]4O[C@H](CO)[C@@H](O)[C@H](O)[C@H]4O)cccc31)c1cccc(OC3O[C@H](CO)[C@@H](O)[C@H](O)[C@H]3O)c1C2=O` (stereo partly drawn), the activity change, negative = inhibition is inactive: -12.2%.

For the compound `CN(C(=O)CSc1nnc(NC(=O)Nc2ccccc2)s1)c1ccccc1`, the activity change, negative = inhibition was inactive: -24.6%.

In the case of `COc1ccc([C@@H](NC(=O)OC(C)(C)C)C(=O)OC(C)(C)C)cc1`, the activity change, negative = inhibition was inactive: -13.8%.

Take `CC(C)C(=O)NC(=S)Nc1ccc(S(=O)(=O)Nc2ccccc2)cc1`: the activity change, negative = inhibition is inactive: -5.61%.

For `COC(=O)c1ccccc1NS(=O)(=O)c1ccc2c(c1)CCCN2C(C)=O`, the activity change, negative = inhibition is inactive: -9.86%.

Regarding `O=C(NC1CCSc2ccccc21)c1cc([N+](=O)[O-])ccc1N1CCOCC1` (stereo not drawn), the activity change, negative = inhibition is inactive: -8.36%.

On to `CCCN1C[C@H](CSC)C[C@@H]2c3cccc4[nH]cc(c34)C[C@H]21`, for which the activity change, negative = inhibition was inactive: -4.98%.

`O=c1[nH]c2cc(F)ccc2c2ccc(F)cc12`: the activity change, negative = inhibition was inactive: -1.91%.

These data come from PubChem BioAssay AID651803 (National Center for Advancing Translational Sciences (NCATS), 2012).
